Laboratory results published in article PMC9580887.
Results are given in words; binding and its absence hold for the method and conditions named. Binding seen in cells or lysates may run through a third protein. Some entries that bind do so weakly or less than the wild type.

Protein sequences, listed by entry. Tags and fused reporters are not part of them.
UniProt O43903: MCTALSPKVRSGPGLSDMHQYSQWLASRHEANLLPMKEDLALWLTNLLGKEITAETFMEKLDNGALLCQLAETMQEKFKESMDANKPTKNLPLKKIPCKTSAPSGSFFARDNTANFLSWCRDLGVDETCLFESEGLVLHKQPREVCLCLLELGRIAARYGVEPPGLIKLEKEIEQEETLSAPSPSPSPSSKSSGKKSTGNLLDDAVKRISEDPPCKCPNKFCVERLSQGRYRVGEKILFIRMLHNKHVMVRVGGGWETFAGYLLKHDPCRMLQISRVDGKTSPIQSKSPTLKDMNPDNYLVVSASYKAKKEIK
UniProt P61073: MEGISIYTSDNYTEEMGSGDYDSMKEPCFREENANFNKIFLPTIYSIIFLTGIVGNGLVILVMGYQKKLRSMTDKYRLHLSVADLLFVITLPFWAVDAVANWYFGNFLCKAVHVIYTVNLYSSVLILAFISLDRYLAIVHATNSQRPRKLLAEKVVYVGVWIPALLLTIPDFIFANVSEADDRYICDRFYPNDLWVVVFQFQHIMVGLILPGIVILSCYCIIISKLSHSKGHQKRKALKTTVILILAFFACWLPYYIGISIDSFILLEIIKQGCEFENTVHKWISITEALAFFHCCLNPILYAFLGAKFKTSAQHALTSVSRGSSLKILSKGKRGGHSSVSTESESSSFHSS

Target: Growth arrest-specific protein 2 (GAS2), endogenous in Jurkat cells (human (endogenous in Jurkat)) (UniProt O43903)
Assay: co-IP; endogenous proteins of Jurkat cells; 500 ug lysate with anti-GAS2 or anti-CXCR4 antibody or isotype control, protein G Plus-Agarose, immunoblot

binding: binds
Substance: C-X-C chemokine receptor type 4 (CXCR4), endogenous in Jurkat cells (from UniProt P61073 1-352)
